Test system: MiaPaCa-2
Assay: MTT assay, MiaPaCa-2
Settings: Homo sapiens, MIA PaCa-2, read-out: IC50 in MiaPaCa-2
Experimental: Cells were treated with QN523 for 1, 4, 8, 24, 48, 72 h and left in culture in fresh media. MTT assay was performed 72 h after initiation of treatment. Data points represent Mean±SD from three independent experiments.
Experiments conducted during the course of developing embodiments for the present invention involved performance of a phenotypic screen of a library of 20,000 small-molecules representing five million compounds. […] Subsequently, a lead optimization campaign was performed to synthesize a series of close analogs. Initially, the 50 analogs were tested in three pancreatic cancer cell lines using MTT assay (Table 1).
For in vitro studies, compounds were dissolved in DMSO at 10 mM as stock solutions and stored at −20° C. For in vivo studies, QN523 was dissolved in a vehicle containing 5% DMSO, 35% propylene glycol and 60% saline, and administered at 100 uL through intraperitoneal injections.

IC50 | Compound
17 µM | CN1CCN(CCCN2c3ccccc3Sc3ccc(Cl)cc32)CC1 [prochlorperazine]
12 µM | CSc1ccc2c(c1)N(CCC1CCCCN1C)c1ccccc1S2 (centres unmarked) [thioridazine, reference compound]
